This series in a line: general procedure: hybrid (solid and solution phase) peptide synthesis; 2-chlorotrityl chloride resin (1% DVB, 0.3-1.2 mmol/g); HBTU/6-Cl-HOBt/DIEA (fragment condensation in solution). The settings on record: purification step, acetate (counter-ion exchange with ammonium acetate/AcOH).

With “Asn^1-Asp^2-Glu^3-Cys^4-Glu^5-Leu^6-Cys^7-Val^8-Asn^9-Val^10-Ala^11-Cys^12-Thr^13-Gly^14-Cys^15-Leu^16”, the step yield was determined as 93%. Besides, the step yield (run 1) came out at 86.0%. Besides, the step yield (run 2) is given as 74%. Besides, the “final HPLC purity” value (analytical RP-HPLC, 215 nm, run 1) amounted to 97.2%.

Values taken from patent publication US9580471 (dated 2017).
